# PubChem BioAssay AID602196 – INSERM, 2012
# Aim: 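Knock-downs that protect lung cancer cells from cisplatin or sensitise them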
# System: human A549 lung cancer cells
# Knock-down reagent: siRNA pair against human genes
# Duration: 48 h transfection before cisplatin; time from cisplatin to read-out not stated
# Conditions: cisplatin at a dose killing half of control-siRNA cells; exact dose and duration not given
# Read-out: 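Cisplatin cell death as a shift from the 50% death seen with control siRNA; siRNAs toxic or growth-blocking alone scored 0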
# Direction: two-siRNA summed score (-2 to +2): higher = both siRNAs protect from cisplatin killing; -2 means both sensitise; mean protection from cisplatin (shift in death) and protection from cisplatin (shift in death), siRNA C and protection from cisplatin (shift in death), siRNA D: higher = protection from cisplatin killing
# Call rule: 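siRNAs harmful alone (LDH or WST-1) get 0; others get +1 for less and -1 for more cisplatin killing; genes are active when the two siRNAs give the same sign, summing to ±2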
# Calls: active = both siRNAs shift cisplatin killing the same way; inactive = no consistent shift, or siRNA harmful alone
# The deposit covers about 23,000 reagents; below is an unselected part. Over the whole deposit, 455 (2%) are marked active. 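Active includes both protection and sensitisation; some change values fall well beyond the stated -50 to +50 range.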 A number with no mark means an inactive call. Not given: the amount of reagent.
two-siRNA summed score (-2 to +2),mean protection from cisplatin (shift in death) (%),"protection from cisplatin (shift in death), siRNA C (%)","protection from cisplatin (shift in death), siRNA D (%)",target
1,5.1,22,-11.8,TTC23L (tetratricopeptide repeat domain 23 like)
0,-2.6,2.2,-7.5,PDIK1L (PDLIM1 interacting kinase 1 like)
0,5.7,4.8,6.7,ZNF3 (zinc finger protein 3)
-1,-8.8,-19.8,2.3,TRRAP (transformation/transcription domain associated protein)
0,2.2,4.2,0.2,"PCDHGA7 (protocadherin gamma subfamily A, 7)"
2 (active),26.4,23.1,29.6,RPL3L (ribosomal protein L3 like)
0,0.1,-4.4,4.6,SELENOI (selenoprotein I)
0,13.6,18,9.3,LOC402506
0,5.3,12.6,-2.1,ARHGAP1 (Rho GTPase activating protein 1)
0,-1.7,-7.2,3.8,LOC391764 (retired record)
0,4.9,8.4,1.4,VWA7 (von Willebrand factor A domain containing 7)
0,11.5,20.7,2.3,CLEC17A (C-type lectin domain containing 17A)
0,13.7,0,27.4,H4C5 (H4 clustered histone 5)
1,7.5,15.5,-0.4,GGPS1 (geranylgeranyl diphosphate synthase 1)
0,20.6,29.5,11.8,LOC440469
0,4.9,4.4,5.5,ZBTB14 (zinc finger and BTB domain containing 14)
0,-1.3,-3.4,0.9,INSR (insulin receptor)
-1,-7,-31,17,PLEKHF1 (pleckstrin homology and FYVE domain containing 1)
0,0.9,21.3,-19.5,CLSTN1 (calsyntenin 1)
0,-2.5,-5.7,0.7,"NRAS (NRAS proto-oncogene, GTPase)"
0,11.7,12.9,10.5,"TNNC2 (troponin C2, fast skeletal type)"
0,12.3,12.4,12.2,SYT16 (synaptotagmin 16)
0,1.8,1.5,2,TGS1 (trimethylguanosine synthase 1)
0,4.4,17.8,-9,TTF1 (transcription termination factor 1)
0,-7,-12.7,-1.3,MYD88 (MYD88 innate immune signal transduction adaptor)
0,9.9,12.8,7,SACK1C (scaffolding CK1 anchoring protein C)
0,3.2,6,0.5,OR13C2 (olfactory receptor family 13 subfamily C member 2)
-2 (active),-21,-24.8,-17.2,FFAR2 (free fatty acid receptor 2)
0,-4.5,-3.8,-5.2,TUBGCP3 (tubulin gamma complex component 3)
0,4.6,7.6,1.6,SHOX (SHOX homeobox)
0,-5.7,-17.8,6.5,SMARCD2 (SWI/SNF related BAF chromatin remodeling complex subunit D2)
1,20,24.8,15.2,MAX (MYC associated transcriptional regulator X)
0,2.2,3.3,1.1,LOC346305
0,-1.4,-3.9,1.2,GARIN3 (golgi associated RAB2 interactor family member 3)
1,16.9,20.4,13.4,LOC389747
1,12.8,20.7,4.9,TMCO5A (transmembrane and coiled-coil domains 5A)
0,-6.8,-4.4,-9.2,VASP (vasodilator stimulated phosphoprotein)
1,15.8,20.5,11.1,LOC440752
0,5.1,11.9,-1.7,LOC131873
0,-4,-3.7,-4.4,TRIM63 (tripartite motif containing 63)
0,-1,-2.4,0.3,LOC441636
0,-7.9,-7.7,-8,PABPC4 (poly(A) binding protein cytoplasmic 4)
1,17.8,3.2,32.3,DAPK2 (death associated protein kinase 2)
0,3,11.8,-5.7,MBD3L1 (methyl-CpG binding domain protein 3 like 1)
-1,-18.7,-35.9,-1.4,STAT6 (signal transducer and activator of transcription 6)
0,17.8,3.4,32.3,GNL3 (G protein nucleolar 3)
0,5.3,12.4,-1.8,PDE1A (phosphodiesterase 1A)
0,3,5.8,0.3,C1orf122 (chromosome 1 open reading frame 122)
0,16.8,26.7,6.9,KCNS1
0,7.9,9.2,6.7,LOC440962
0,-10.4,-20.4,-0.3,ACTRT1 (actin related protein T1)
0,0.9,-22.7,24.4,"SCUBE1 (signal peptide, CUB domain and EGF like domain containing 1)"
0,6.5,-3.8,16.7,LOC400761
0,2.3,-1.2,5.7,GLP1R (glucagon like peptide 1 receptor)
-1,-16.6,9.8,-43.1,LPL (lipoprotein lipase)
0,10.4,13.9,7,LOC442689
0,5.2,13.3,-2.9,PRR3 (proline rich 3)

3 consecutive records already listed, for reference:
two-siRNA summed score (-2 to +2),mean protection from cisplatin (shift in death) (%),"protection from cisplatin (shift in death), siRNA C (%)","protection from cisplatin (shift in death), siRNA D (%)",target
0,0.1,-4.4,4.6,SELENOI (selenoprotein I)
0,13.6,18,9.3,LOC402506
0,5.3,12.6,-2.1,ARHGAP1 (Rho GTPase activating protein 1)
